PubChem BioAssay AID720505 – Drosophila RNAi Screening Center | 2013

Assay: 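Fly regulators or components of the CRAC channel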 (primary screen)
System: Drosophila S2R+ cells
Knock-down reagent: long dsRNA against Drosophila genes
Challenge: thapsigargin (2 µM) in calcium-free buffer to empty internal stores, then 2 mM calcium added back
Read-out: 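Fluo-4 signal in 384-well plates read on a FLIPR after thapsigargin (2 µM, calcium-free) store depletion and 2 mM calcium add-back; unnormalised mean endpoint per well; screen run twice, selected wells retested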
Reading the numbers: calcium signal and retest calcium signal: higher = more calcium entry after store depletion
Call rule: 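About 1500 genes called as lowering calcium entry, by varying amounts, judged against per-plate control wells with STIM1 as positive and Rho1 as negative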
Calls: active = called as lowering calcium entry; inactive = not called
The screen tested about 20,000 reagents; shown is an unselected part of those with a known target gene and a result. In the full data, about 2,100 (10%) got an active call. 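Raw plate signals without normalisation; calls rest on control-based scores that were not deposited; replicate 2 separates called from uncalled poorly.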 Not given: the amount of reagent, the time to read-out.

no.	predicted target	dsRNA	calcium signal, replicate 1	calcium signal, replicate 2	retest calcium signal, replicate 1	retest calcium signal, replicate 2	outcome
1	frma (GeneID 31464)	DRSC18297	165	86.3			inactive
2	Npc2g (GeneID 43648)	DRSC14296	137	130			inactive
3	CG13720 (GeneID 38557)	DRSC08329	60.5	69.6			inactive
4	CG17601 (GeneID 33143)	DRSC20639	153	95.8			inactive
5	dor (GeneID 31118)	DRSC18765	88.6	142			inactive
6	vimar (GeneID 35609)	DRSC05026	164	96.4			inactive
7	Tdc2 (GeneID 246620)	DRSC04999	99.2	160			inactive
8	Arp2 (GeneID 32623)	DRSC19332	99.8	115			inactive
9	GalT1 (GeneID 36279)	DRSC22238	70.3	202			inactive
10	CG14464 (GeneID 3355132)	DRSC07760	91.5	141			inactive
11	Npc1b (GeneID 33072)	DRSC20488	201	78.6			inactive
12	CG3597 (GeneID 33420)	DRSC00617	172	160			inactive
13	mms4 (GeneID 36136)	DRSC06249	98.4	112			inactive
14	Muc26B (GeneID 50424)	DRSC02322	67.9	160			active
15	Cyp6a16Psi (retired record) (GeneID 3772661)	DRSC03307	147	93			inactive
16	CG8243 (GeneID 35890)	DRSC07122	80.4	95.6			inactive
17	CG8243 (GeneID 35890)	DRSC22608	168	224			inactive
18	PPP4R2r (GeneID 31979)	DRSC18695	85.3	126	5737	113	inactive
19	PPP4R2r (GeneID 31979)	DRSC21503	122	97.1			inactive
20	CG17329 (GeneID 34958)	DRSC01926	73	90.4			active
21	Alp10 (GeneID 38632)	DRSC09749	92.5	101			inactive
22	LysRS (GeneID 31904)	DRSC17824	190	148			inactive
23	CG1360 (GeneID 35695)	DRSC06406	158	106			inactive
24	Edem1 (GeneID 31154)	DRSC18573	96.6	105			inactive
25	Tet (GeneID 38347)	DRSC08550	53.7	120			active
26	Tet (GeneID 38347)	DRSC08646	71.2	114			inactive
27	kairos (GeneID 32815)	DRSC19972	167	118			inactive
28	kairos (GeneID 32815)	DRSC23286	129	144			inactive
29	coil (GeneID 35785)	DRSC07242	186	220			inactive
30	CG14958 (GeneID 38387)	DRSC08417	58.6	117			inactive
31	Gpo3 (GeneID 34776)	DRSC01978	138	173			inactive
32	CG17633 (GeneID 34297)	DRSC02631	191	149			inactive
33	Rnf11 (GeneID 318246)	DRSC21574	164	74.6			inactive
34	CG11710 (GeneID 33044)	DRSC20485	154	92.8			inactive
